{"source": "PubChem BioAssay AID1508597 – Cure First, 2020", "screen": "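Genes whose silencing sensitises or protects ovarian cancer cells against rucaparib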 (primary screen)", "cells": "human ovarian carcinoma lines grown from tumours: OCI-P5x (papillary serous) and OCI-C5x (clear cell)", "knock-down reagent": "siRNA pool against human genes, 1.25 pmol siRNA per well", "time to read-out": "72 h or 96 h, depending on the cell culture", "challenge": "rucaparib 20 µM (about IC30) or vehicle, present until read-out", "measured": "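ATP luminescence measured at 72 or 96 h according to the culture, then normalised and expressed as percent viability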", "direction": "viability, normalised: higher = more viable cells remaining", "hit rule": "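Active when normalised viability falls below 80 percent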", "calls": "active = viability under 80%; inactive = viability 80% or more", "note": "Here is an unselected part of about 2,100 reagents tested. 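Calls flag viability under 80% in either arm, not effects specific to rucaparib; the reference for percent is not stated.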 Entries without a mark were called inactive. Not given: the 100% reference."}
{"Gene":"MED4 (GeneID 29079)","PubChem SID":"SID405526980","rucaparib or vehicle":"Rucaparib","cell line":"OCI-C5x (clear cell)","technical replicate":"1","viability, normalised (%)":"47.7 (active)"}
{"Gene":"MED4 (GeneID 29079)","PubChem SID":"SID405526980","rucaparib or vehicle":"Rucaparib","cell line":"OCI-C5x (clear cell)","technical replicate":"2","viability, normalised (%)":"31.5 (active)"}
{"Gene":"MED4 (GeneID 29079)","PubChem SID":"SID405526980","rucaparib or vehicle":"Rucaparib","cell line":"OCI-C5x (clear cell)","technical replicate":"3","viability, normalised (%)":"30.1 (active)"}
{"Gene":"MED4 (GeneID 29079)","PubChem SID":"SID405526980","rucaparib or vehicle":"Rucaparib","cell line":"OCI-P5x (serous)","technical replicate":"1","viability, normalised (%)":"60.5 (active)"}
{"Gene":"MED4 (GeneID 29079)","PubChem SID":"SID405526980","rucaparib or vehicle":"Rucaparib","cell line":"OCI-P5x (serous)","technical replicate":"2","viability, normalised (%)":"66.7 (active)"}
{"Gene":"MED4 (GeneID 29079)","PubChem SID":"SID405526980","rucaparib or vehicle":"Rucaparib","cell line":"OCI-P5x (serous)","technical replicate":"3","viability, normalised (%)":"55 (active)"}
{"Gene":"MED4 (GeneID 29079)","PubChem SID":"SID405526980","rucaparib or vehicle":"Vehicle","cell line":"OCI-C5x (clear cell)","technical replicate":"1","viability, normalised (%)":"43.8 (active)"}
{"Gene":"MED4 (GeneID 29079)","PubChem SID":"SID405526980","rucaparib or vehicle":"Vehicle","cell line":"OCI-C5x (clear cell)","technical replicate":"2","viability, normalised (%)":"56 (active)"}
{"Gene":"MED4 (GeneID 29079)","PubChem SID":"SID405526980","rucaparib or vehicle":"Vehicle","cell line":"OCI-C5x (clear cell)","technical replicate":"3","viability, normalised (%)":"53.5 (active)"}
{"Gene":"MED4 (GeneID 29079)","PubChem SID":"SID405526980","rucaparib or vehicle":"Vehicle","cell line":"OCI-P5x (serous)","technical replicate":"1","viability, normalised (%)":"70.7 (active)"}
{"Gene":"MED4 (GeneID 29079)","PubChem SID":"SID405526980","rucaparib or vehicle":"Vehicle","cell line":"OCI-P5x (serous)","technical replicate":"2","viability, normalised (%)":"73.6 (active)"}
{"Gene":"MED4 (GeneID 29079)","PubChem SID":"SID405526980","rucaparib or vehicle":"Vehicle","cell line":"OCI-P5x (serous)","technical replicate":"3","viability, normalised (%)":"79.4 (active)"}

Next part (4 carried over from the part before).
{"Gene":"MED4 (GeneID 29079)","PubChem SID":"SID405526980","rucaparib or vehicle":"Vehicle","cell line":"OCI-C5x (clear cell)","technical replicate":"3","viability, normalised (%)":"53.5 (active)"}
{"Gene":"MED4 (GeneID 29079)","PubChem SID":"SID405526980","rucaparib or vehicle":"Vehicle","cell line":"OCI-P5x (serous)","technical replicate":"1","viability, normalised (%)":"70.7 (active)"}
{"Gene":"MED4 (GeneID 29079)","PubChem SID":"SID405526980","rucaparib or vehicle":"Vehicle","cell line":"OCI-P5x (serous)","technical replicate":"2","viability, normalised (%)":"73.6 (active)"}
{"Gene":"MED4 (GeneID 29079)","PubChem SID":"SID405526980","rucaparib or vehicle":"Vehicle","cell line":"OCI-P5x (serous)","technical replicate":"3","viability, normalised (%)":"79.4 (active)"}
{"Gene":"DMAP1 (GeneID 55929)","PubChem SID":"SID405528227","rucaparib or vehicle":"Rucaparib","cell line":"OCI-C5x (clear cell)","technical replicate":"1","viability, normalised (%)":"61.5 (active)"}
{"Gene":"DMAP1 (GeneID 55929)","PubChem SID":"SID405528227","rucaparib or vehicle":"Rucaparib","cell line":"OCI-C5x (clear cell)","technical replicate":"2","viability, normalised (%)":"50.9 (active)"}
{"Gene":"DMAP1 (GeneID 55929)","PubChem SID":"SID405528227","rucaparib or vehicle":"Rucaparib","cell line":"OCI-C5x (clear cell)","technical replicate":"3","viability, normalised (%)":"54.9 (active)"}
{"Gene":"DMAP1 (GeneID 55929)","PubChem SID":"SID405528227","rucaparib or vehicle":"Rucaparib","cell line":"OCI-P5x (serous)","technical replicate":"1","viability, normalised (%)":91.7}
{"Gene":"DMAP1 (GeneID 55929)","PubChem SID":"SID405528227","rucaparib or vehicle":"Rucaparib","cell line":"OCI-P5x (serous)","technical replicate":"2","viability, normalised (%)":89.4}
{"Gene":"DMAP1 (GeneID 55929)","PubChem SID":"SID405528227","rucaparib or vehicle":"Rucaparib","cell line":"OCI-P5x (serous)","technical replicate":"3","viability, normalised (%)":84}
{"Gene":"DMAP1 (GeneID 55929)","PubChem SID":"SID405528227","rucaparib or vehicle":"Vehicle","cell line":"OCI-C5x (clear cell)","technical replicate":"1","viability, normalised (%)":"45.4 (active)"}
{"Gene":"DMAP1 (GeneID 55929)","PubChem SID":"SID405528227","rucaparib or vehicle":"Vehicle","cell line":"OCI-C5x (clear cell)","technical replicate":"2","viability, normalised (%)":"54.6 (active)"}
{"Gene":"DMAP1 (GeneID 55929)","PubChem SID":"SID405528227","rucaparib or vehicle":"Vehicle","cell line":"OCI-C5x (clear cell)","technical replicate":"3","viability, normalised (%)":"33.6 (active)"}
{"Gene":"DMAP1 (GeneID 55929)","PubChem SID":"SID405528227","rucaparib or vehicle":"Vehicle","cell line":"OCI-P5x (serous)","technical replicate":"1","viability, normalised (%)":"63 (active)"}
{"Gene":"DMAP1 (GeneID 55929)","PubChem SID":"SID405528227","rucaparib or vehicle":"Vehicle","cell line":"OCI-P5x (serous)","technical replicate":"2","viability, normalised (%)":"64.3 (active)"}
{"Gene":"DMAP1 (GeneID 55929)","PubChem SID":"SID405528227","rucaparib or vehicle":"Vehicle","cell line":"OCI-P5x (serous)","technical replicate":"3","viability, normalised (%)":"78.8 (active)"}
{"Gene":"H1-4 (GeneID 3008)","PubChem SID":"SID405528249","rucaparib or vehicle":"Rucaparib","cell line":"OCI-C5x (clear cell)","technical replicate":"1","viability, normalised (%)":"57.4 (active)"}
{"Gene":"H1-4 (GeneID 3008)","PubChem SID":"SID405528249","rucaparib or vehicle":"Rucaparib","cell line":"OCI-C5x (clear cell)","technical replicate":"2","viability, normalised (%)":"51.4 (active)"}
{"Gene":"H1-4 (GeneID 3008)","PubChem SID":"SID405528249","rucaparib or vehicle":"Rucaparib","cell line":"OCI-C5x (clear cell)","technical replicate":"3","viability, normalised (%)":"65.3 (active)"}
{"Gene":"H1-4 (GeneID 3008)","PubChem SID":"SID405528249","rucaparib or vehicle":"Rucaparib","cell line":"OCI-P5x (serous)","technical replicate":"1","viability, normalised (%)":"71.1 (active)"}
{"Gene":"H1-4 (GeneID 3008)","PubChem SID":"SID405528249","rucaparib or vehicle":"Rucaparib","cell line":"OCI-P5x (serous)","technical replicate":"2","viability, normalised (%)":"66.7 (active)"}
{"Gene":"H1-4 (GeneID 3008)","PubChem SID":"SID405528249","rucaparib or vehicle":"Rucaparib","cell line":"OCI-P5x (serous)","technical replicate":"3","viability, normalised (%)":"64.8 (active)"}
{"Gene":"H1-4 (GeneID 3008)","PubChem SID":"SID405528249","rucaparib or vehicle":"Vehicle","cell line":"OCI-C5x (clear cell)","technical replicate":"1","viability, normalised (%)":"47.3 (active)"}
{"Gene":"H1-4 (GeneID 3008)","PubChem SID":"SID405528249","rucaparib or vehicle":"Vehicle","cell line":"OCI-C5x (clear cell)","technical replicate":"2","viability, normalised (%)":"50.1 (active)"}
{"Gene":"H1-4 (GeneID 3008)","PubChem SID":"SID405528249","rucaparib or vehicle":"Vehicle","cell line":"OCI-C5x (clear cell)","technical replicate":"3","viability, normalised (%)":"47.7 (active)"}
{"Gene":"H1-4 (GeneID 3008)","PubChem SID":"SID405528249","rucaparib or vehicle":"Vehicle","cell line":"OCI-P5x (serous)","technical replicate":"1","viability, normalised (%)":83.4}
{"Gene":"H1-4 (GeneID 3008)","PubChem SID":"SID405528249","rucaparib or vehicle":"Vehicle","cell line":"OCI-P5x (serous)","technical replicate":"2","viability, normalised (%)":"51 (active)"}
{"Gene":"H1-4 (GeneID 3008)","PubChem SID":"SID405528249","rucaparib or vehicle":"Vehicle","cell line":"OCI-P5x (serous)","technical replicate":"3","viability, normalised (%)":"68.4 (active)"}
